Laboratory results taken from patent US20240279149A1 (ZHEJIANG OCEAN UNIVERSITY, priority 2021, published 2024).

Assay: Sensory evaluation of photodynamically treated shrimp in 4° C. storage
Set-up: species or system Chinese tube whip shrimp
Conditions: after 10 days of storage at 4° C.; score of 9 indicates significant quality deterioration

COc1cc(/C=C/C=C/C(O)=C/C(=O)/C=C/c2ccc(Br)c(OC)c2)ccc1Br [Embodiment 1]
quality deterioration by sensory score: no significant quality deterioration
